Results as given in PubChem BioAssay AID1671190 (National Center for Advancing Translational Sciences (NCATS), 2021).
Screen size: about 580,000 compounds; about 6,100 (1.1%) were called active. Inconclusive results, whose numbers are uncertain, are shown with a selection of clear calls. Calls come from the whole dose curve; as a rule, active = well fitted inhibition curve with a large enough effect; inconclusive = small, poorly fitted or top-dose-only effect, or another doubt; inactive = no such curve, though single readings can be large or run the other way. Potencies of inconclusive entries are doubtful fits and often do not repeat.

Chains of the proteins cited; added tags and fusions are not shown.
UniProt P18054, whole entry, looked up: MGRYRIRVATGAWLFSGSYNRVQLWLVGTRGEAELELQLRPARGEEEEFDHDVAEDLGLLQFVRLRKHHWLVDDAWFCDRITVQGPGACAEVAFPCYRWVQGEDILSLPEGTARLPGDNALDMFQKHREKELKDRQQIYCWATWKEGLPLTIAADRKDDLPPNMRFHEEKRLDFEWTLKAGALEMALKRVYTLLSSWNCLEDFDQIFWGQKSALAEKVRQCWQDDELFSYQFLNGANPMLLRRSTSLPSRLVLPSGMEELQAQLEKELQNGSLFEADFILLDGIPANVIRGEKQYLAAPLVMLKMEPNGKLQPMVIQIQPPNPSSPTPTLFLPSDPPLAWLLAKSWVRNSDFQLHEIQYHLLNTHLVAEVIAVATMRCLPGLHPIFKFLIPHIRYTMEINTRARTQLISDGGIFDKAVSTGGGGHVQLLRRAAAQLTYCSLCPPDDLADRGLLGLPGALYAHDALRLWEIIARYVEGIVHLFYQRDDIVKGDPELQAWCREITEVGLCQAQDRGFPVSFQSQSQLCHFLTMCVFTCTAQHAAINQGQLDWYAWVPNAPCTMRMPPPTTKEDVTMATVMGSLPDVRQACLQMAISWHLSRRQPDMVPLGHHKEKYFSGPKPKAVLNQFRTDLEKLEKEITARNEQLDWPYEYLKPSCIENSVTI

Target: Polyunsaturated fatty acid lipoxygenase ALOX12 (Homo sapiens) (UniProt P18054)
Experiment: Primary qHTS assay for inhibitors of human arachidonate 12S-lipoxygenase (ALOX12): Round 2
Details: purified 12hLO, xylenol orange hydroperoxide absorbance; series mostly up to 108 µM
Procedure, shortened: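 Hydroperoxide product was detected by ferrous iron/xylenol orange as the 573 to 405 nm absorbance ratio. Arachidonic acid at 40 uM (final) was turned over for 30 min at room temperature by 150 nM human 12hLO, pH 7.0 Hepes buffer, after 15 min compound preincubation.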
Potency is the fitted concentration of half-maximal effect.

SMILES | Potency
O=C1NC(=S)S/C1=C\c1cc(Cl)cc(Cl)c1O | active: 44.7 µM
O=C(NCc1ccc2c(c1)OCO2)C1CCN(S(=O)(=O)c2cccs2)CC1 | inactive
CCC(C)(C)c1nnc(NC(=O)C2CCN(C(=O)c3ccco3)CC2)s1 | inconclusive: 39.8 µM [inhibitor, partial curve, poor fit]
CC(C)(C)c1ccc(-c2noc(CCC(=O)Nc3cccnc3)n2)cc1 | inactive
Cn1ccc2c(N3CCCCCC3)cc3c(c21)C1CCC3C1 (configuration not stated) | inconclusive: 39.8 µM [inhibitor, partial curve, poor fit]
Cc1nc(C)c(-c2ccc(SCC(=O)Nc3ccccc3F)nn2)s1 | inactive
COc1ccc(Nc2cc(C)nc(NCc3ccccc3)n2)cc1 | inconclusive: 44.7 µM [inhibitor, partial curve, poor fit]
Cc1cc2ccccc2n1-c1ccc(C(=O)N2CCCCC2)s1 | inconclusive: 112 µM [inhibitor, partial curve, poor fit]
Cc1nc(-c2ccc(F)cc2)n(Cc2cccc(Cl)c2)c(=O)c1CCO | inconclusive: 39.8 µM [inhibitor, single point]
O=C(CCSCc1ccc(Cl)cc1)NCc1ccco1 | inactive
Nc1ccc(C(=O)OCC(=O)Nc2ccc3c(c2)OCO3)cc1[N+](=O)[O-] | inactive
CCCc1nnc2sc(-c3ccc4c(c3)OCO4)nn12 | inconclusive: 35.5 µM [inhibitor, partial curve, poor fit]
Cn1cnc(S(=O)(=O)N2CCCC(C(=O)NC3CCCCC3)CCNC(=O)CC2)c1 (configuration not stated) | inactive
O=C(O)c1n[nH]c2ccccc12 | inconclusive: 1 µM [inhibitor, full curve, poor fit]
O=C(Nc1ncnc2c1CCC2)C12CC3CC(CC(C3)C1)C2 | inactive
Cc1ccc(Cn2cc(CN3CC(N4CCN(CCO)CC4)CS3(=O)=O)nn2)cc1 (configuration not stated) | inconclusive: 15.8 µM [inhibitor, full curve]
O=C(Cn1c(=O)[nH]c2c(-c3ccccc3F)c[nH]c2c1=O)NCc1ccc2c(c1)OCO2 | inconclusive: 100 µM [inhibitor, single point]
COc1cc2c(cc1OC)C(C(=O)N1CCN(c3ccccc3)CC1)C(c1cccs1)N(C)C2=O (configuration not stated) | inconclusive: 56.2 µM [inhibitor, partial curve, poor fit]
Cc1cccc(Cl)c1NC(=O)Cn1ccn2nc(-c3ccc(F)cc3)c(CO)c2c1=O | inconclusive: 5.01 µM [inhibitor, full curve, poor fit]
CC1CCCN(C(=O)c2ccc3c(c2)C(=O)N(CCC2=CCCCC2)C3=O)C1 (configuration not stated) | inconclusive: 25.1 µM [inhibitor, partial curve]
COC(=O)C1=C(C)N(Cc2ccccc2C(F)(F)F)C(=NCc2ccc(C(F)(F)F)cc2)NC1c1ccccc1 (configuration not stated) | inconclusive: 79.4 µM [inhibitor, partial curve, poor fit]
O=C(Cn1cncn1)NCc1cccc2ccccc12 | inconclusive: 56.2 µM [inhibitor, partial curve, poor fit]
c1cncc(-c2nnc3n2CCN(Cc2cncs2)C3)c1 | inactive

SMILES | Potency
CC1CN(Cc2cnc(Cl)s2)CC(C)O1 (configuration not stated) | inconclusive: 39.8 µM [inhibitor, single point]
Cc1nn(C)c(C)c1S(=O)(=O)N(CC(=O)Nc1ccc(F)c(Cl)c1)c1ccc(C(C)C)cc1 | inconclusive: 7.08 µM [inhibitor, full curve]
Cc1ccc(C2(C)NC(=O)N(CC(=O)Nc3ccc(S(=O)(=O)Nc4nccs4)cc3)C2=O)cc1 (configuration not stated) | inconclusive: 12.6 µM [inhibitor, partial curve, poor fit]
O=C(OC1CCCCC1=O)c1ccc(F)cc1Cl (configuration not stated) | inconclusive: 70.8 µM [inhibitor, partial curve, poor fit]
Cc1ccc(/C=C2\SC(=O)N(CCC(=O)N3CCN(C)CC3)C2=O)cc1 | inconclusive: 50.1 µM [inhibitor, partial curve, poor fit]
CSc1ccc(/C=C/C(=O)Nc2ccccc2-c2cccs2)cc1 | inactive
O=C1OC(c2ccccc2)(c2cc(Br)c(O)c(Br)c2)c2ccccc21 (configuration not stated) | inconclusive: 50.1 µM [inhibitor, partial curve, poor fit]
COc1ccc(C2Cn3nnc(C(=O)N4CCN(C(=O)c5ccc(C)cc5)CC4)c3CO2)cc1 (configuration not stated) | inactive
Cc1cccc(C(C)C)c1NC(=O)CN1C(=O)NC2(CCc3ccccc32)C1=O (configuration not stated) | inconclusive: 63.1 µM [inhibitor, partial curve, poor fit]
Cn1c(NCc2ccccc2Cl)nc2c1c(=O)n(Cc1ccccc1F)c(=O)n2C | inconclusive: 20 µM [inhibitor, full curve]
CCOc1ccc(-c2cc3c(=O)n(CCNC(=O)c4ccc5c(c4)OCO5)ccn3n2)cc1 | inactive
COc1ccc(Br)cc1/C=C/C(=O)NC(=S)Nc1ccc(Cl)c(C(=O)O)c1 | inconclusive: 44.7 µM [inhibitor, partial curve, poor fit]
Cc1ccc(C(=O)N2C(C(=O)NCC(C)C)COC23CCN(C(=O)c2cccc(Cl)c2)CC3)cc1 (configuration not stated) | inactive
COc1ccc(-c2nnc(SCc3nc4ccccc4o3)o2)c(OC)c1 | inactive
Cc1ccc(C)c(NC(=O)CN(C)C(=O)Cc2ccc(Cl)cc2Cl)c1 | inconclusive: 100 µM [inhibitor, partial curve, poor fit]
O=C1NC[C@@H](Cc2cccc3ccccc23)N(CC2CCCCC2)C1=O | inconclusive: 50.1 µM [inhibitor, partial curve, poor fit]
O=C(OCc1noc(-c2ccco2)n1)c1cc(Br)c[nH]1 | active: 25.1 µM
N#Cc1c(N)nc(SCC(=O)C23CC4CC(CC(C4)C2)C3)c(C#N)c1-c1ccc(Cl)cc1 | inactive
N#C/C(=C\c1c(N2CCC(C(N)=O)CC2)nc2ccccn2c1=O)C(=O)NC1CCCCC1 | inconclusive: 39.8 µM [inhibitor, partial curve, poor fit]
CCOC(=O)c1cc(-c2ccc(S(=O)(=O)N3CCN(c4cccc(C)c4C)CC3)s2)on1 | inactive
Nc1ncnc(Nc2cccc(F)c2)n1 | inconclusive: 126 µM [inhibitor, partial curve, poor fit]
Cc1ccc(CNC(=O)C23CN(Cc4ccccc4)CC2C(c2cccc([N+](=O)[O-])c2)=NO3)cc1 (configuration not stated) | inactive
CCC(NC(=O)CCl)c1ccc(C)cc1 (configuration not stated) | inactive

A draw from above in order of SMILES length, rising:
SMILES | Potency
O=C1NC(=S)S/C1=C\c1cc(Cl)cc(Cl)c1O | active: 44.7 µM
Cn1cnc(S(=O)(=O)N2CCCC(C(=O)NC3CCCCC3)CCNC(=O)CC2)c1 (configuration not stated) | inactive
CCOC(=O)c1cc(-c2ccc(S(=O)(=O)N3CCN(c4cccc(C)c4C)CC3)s2)on1 | inactive
COc1cc2c(cc1OC)C(C(=O)N1CCN(c3ccccc3)CC1)C(c1cccs1)N(C)C2=O (configuration not stated) | inconclusive: 56.2 µM [inhibitor, partial curve, poor fit]
Cc1ccc(C2(C)NC(=O)N(CC(=O)Nc3ccc(S(=O)(=O)Nc4nccs4)cc3)C2=O)cc1 (configuration not stated) | inconclusive: 12.6 µM [inhibitor, partial curve, poor fit]

Next part:

SMILES | Potency
Clc1ccc(-c2cccc3nccn23)c(Cl)c1 | inconclusive: 56.2 µM [inhibitor, partial curve, poor fit]
O=C(OCCN1CCOCC1)c1ccc(O)cc1 | inconclusive: 50.1 µM [inhibitor, partial curve, poor fit]
CCCOc1cc(C)c(C)cc1S(=O)(=O)N1CCCCC1 | inconclusive: 63.1 µM [inhibitor, partial curve, poor fit]
COc1cc(CN2CCN(Cc3ccc4cc(F)ccc4n3)CC2CCO)cc(OC)c1 (configuration not stated) | inconclusive: 28.2 µM [inhibitor, single point]
O=[N+]([O-])c1ccc(COc2ccc(-c3[nH]ncc3-c3ccccc3)c(O)c2)cc1 | inconclusive: 14.1 µM [inhibitor, partial curve, poor fit]
COCCn1ncc(N2CCCC(CC(=O)NCCC3=CCCCC3)C2)cc1=O (configuration not stated) | inactive
CN(CCC#N)c1ccc(/C=C(\C#N)c2ccccn2)cc1 | inconclusive: 112 µM [inhibitor, partial curve, poor fit]
O=C(Cc1c[nH]c2ncc(-c3ccc(F)c(Cl)c3)cc12)NCc1cccnc1 | inactive
O=C(Nc1ccc(Cl)c(Cl)c1)Nc1ccc(Br)cc1F | inconclusive: 56.2 µM [inhibitor, partial curve, poor fit]
CCCn1c(=O)c(/C(N)=N/O)nn(-c2cccc(C(F)(F)F)c2)c1=O | inconclusive: 112 µM [inhibitor, partial curve, poor fit]
COc1ccc(C(=O)NC(=S)NNC(=O)CNC(=O)C2CCCCC2)cc1 | inconclusive: 50.1 µM [inhibitor, partial curve, poor fit]
CNc1ccnc(-c2ccccc2OC)n1 | active: 15.8 µM
Cn1cccc1C(=O)NC(=O)COC(=O)c1cc(S(=O)(=O)N2CCCCC2)ccc1Cl | inactive
CSc1nnc(-c2cccc(NC(=S)NN)c2)o1 | inconclusive: 44.7 µM [inhibitor, partial curve, poor fit]
Cc1[nH]n(-c2ccccc2)c(=O)c1/C=N/N1CCOCC1 | inconclusive: 35.5 µM [inhibitor, single point]
COc1cccc(CNC(=O)CCc2c(C)c3cc4c(C)c(C)oc4cc3oc2=O)c1 | inactive
CCOC(=O)CNC(=O)C(=O)NCC(=O)OCC | inactive
O=C(CSc1nc2ccccc2c(=O)n1CCC(=O)N1CCCCC1)NCc1ccccc1 | inconclusive: 7.08 µM [inhibitor, partial curve, poor fit]
CC(C)N(c1ccccc1)c1ccc(NC(=O)Cn2nc(C(=O)O)c3ccccc3c2=O)cc1 | inconclusive: 25.1 µM [inhibitor, partial curve, poor fit]
CC(=O)Nc1ccc(NC(=O)C(C)OC(=O)c2ccc(S(=O)(=O)N3CCCCC3)cc2)cc1 (configuration not stated) | inconclusive: 112 µM [inhibitor, partial curve, poor fit]
C=CCn1c(SCC(=O)NC(N)=O)nnc1-c1cc2c(s1)CCC(CC)C2 (configuration not stated) | inactive
